The list does not hold the whole screen: it gathers tests that were run many times, whatever their T/C, doses with no T/C, and many T/C values between a quarter and a half above the control. Further doses and runs are listed elsewhere. T/C gives the treated animals as a percentage of the vehicle group. Some entries give survivors of the animals treated and no T/C: the source files T/C as zero there, which appears to mark a toxic dose or a test without result, not a measured value. Some doses without a T/C left all or most animals alive at the check, yet need not have been tolerated: the source hardly ever lists a survival T/C far under the control, and the zero likely stands for such cases as well. Counts of survivors are from the toxicity check (mostly the fifth day) where no day follows; animals may have died later. Schedules are NCI's codes, read here as Q, the interval in days (D) or hours (H), X, the number of doses. Where survival is the endpoint, the PubChem record calls one and a half times the control and up active, and a quarter to a half above the control has no call in these data; cut-offs in other NCI protocols can differ.
Tested on: P388 leukemia ip, CD2F1 mice, survival T/C
Experiment: NCI In Vivo Anticancer Drug Screen. Data for tumor model P388 Leukemia (intraperitoneal) in CD2F1 (CDF1) mice
Conditions: T/C endpoint: median survival time, higher T/C = longer survival

Compound: CC/C(C)=N/NC(=S)NC
- survivor count (dose: 50.0 mg/kg/injection, schedule: Q01DX009 (ip), vehicle: saline): 4 of 6
- survivor count (dose: 100.0 mg/kg/injection, schedule: Q01DX009 (ip), vehicle: saline): 0 of 6
- survivor count (dose: 200.0 mg/kg/injection, schedule: Q01DX009 (ip), vehicle: saline): 0 of 6

Compound: CN(C)CCCOc1ccccc1NC1=C(Cl)C(=O)C(Nc2ccccc2OCCCN(C)C)=C(Cl)C1=O
- survivor count (dose: 50.0 mg/kg/injection, schedule: Q01DX005 (ip), vehicle: Klucel (hydroxypropylcellulose) (HPC)): 4 of 5
- survivor count (dose: 100.0 mg/kg/injection, schedule: Q01DX005 (ip), vehicle: Klucel (hydroxypropylcellulose) (HPC)): 4 of 5
- survivor count (dose: 200.0 mg/kg/injection, schedule: Q01DX005 (ip), vehicle: Klucel (hydroxypropylcellulose) (HPC)): 0 of 5

Compound: CC[C@@]1(O)C[C@H](OC2CC(N(C)C)C(O)C(C)O2)c2c(O)c3c(c(O)c2[C@H]1OC1CC(N(C)C)C(O)C(C)O1)C(=O)c1cccc(O)c1C3=O (stereo not given in full)
- T/C (dose: 0.06 mg/kg/injection, schedule: Q01DX009 (ip), vehicle: other): 131 % of control
- T/C (dose: 0.13 mg/kg/injection, schedule: Q01DX009 (ip), vehicle: other): 133 % of control
- survivor count (dose: 0.25 mg/kg/injection, schedule: Q01DX009 (ip), vehicle: other): 6 of 6
- survivor count (dose: 0.5 mg/kg/injection, schedule: Q01DX009 (ip), vehicle: other): 4 of 6

Reference: PubChem BioAssay AID330 (DTP/NCI, 2004)
